This is one part of the list.
The targets below were run with CN(CCOC1=CC=C(C=C1)C[C@H]2C(=O)NC(=O)S2)C3=CC=CC=N3 (racemic) [rosiglitazone] (assay: log2 fold change, soluble protein after heating vs DMSO (PISA); higher = thermal stabilisation; K562 cells, 10 uM, 30 min; active = over 0.2 and 3.5 SD of the protein, either way, in both replicates (recomputed)).
Outline: (§1)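 K562 cells at 2×10^6 cells/mL were given 10 μM compound for 30 min. Aliquots then went through 3 min of heating across 48°C-58°C, were pooled, and were extracted in PBS with 0.5% NP-40 at 4°C, and the supernatant after 21,000xg for 90 min was quantified by TMTpro 16plex LC-MS/MS with channel sums equalised. Thermal stability relative to control samples, from duplicates, is given as log2 fold change.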

Protein sequences, listed by entry. Tags and fused reporters are not part of them. Lines headed by an entry give the natural chain unless they say otherwise; changes in a name come on top.
UniProt P02675: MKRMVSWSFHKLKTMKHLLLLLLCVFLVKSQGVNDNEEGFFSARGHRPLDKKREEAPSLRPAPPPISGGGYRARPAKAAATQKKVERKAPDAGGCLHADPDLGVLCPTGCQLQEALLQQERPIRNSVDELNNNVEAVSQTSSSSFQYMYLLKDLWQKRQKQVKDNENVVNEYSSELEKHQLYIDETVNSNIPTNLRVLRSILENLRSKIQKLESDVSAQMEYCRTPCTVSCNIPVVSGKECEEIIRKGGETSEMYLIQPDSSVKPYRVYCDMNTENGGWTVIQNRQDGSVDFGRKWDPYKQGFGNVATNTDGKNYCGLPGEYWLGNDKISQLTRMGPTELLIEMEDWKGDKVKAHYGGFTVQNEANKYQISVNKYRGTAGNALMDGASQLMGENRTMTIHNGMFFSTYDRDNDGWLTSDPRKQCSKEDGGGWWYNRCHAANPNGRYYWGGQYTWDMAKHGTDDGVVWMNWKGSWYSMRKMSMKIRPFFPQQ
UniProt Q96GI7: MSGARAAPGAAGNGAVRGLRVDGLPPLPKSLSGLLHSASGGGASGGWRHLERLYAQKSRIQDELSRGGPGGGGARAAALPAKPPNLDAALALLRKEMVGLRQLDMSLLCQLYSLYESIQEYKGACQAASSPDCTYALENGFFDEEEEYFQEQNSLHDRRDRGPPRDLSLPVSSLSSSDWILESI
UniProt Q8TAV0: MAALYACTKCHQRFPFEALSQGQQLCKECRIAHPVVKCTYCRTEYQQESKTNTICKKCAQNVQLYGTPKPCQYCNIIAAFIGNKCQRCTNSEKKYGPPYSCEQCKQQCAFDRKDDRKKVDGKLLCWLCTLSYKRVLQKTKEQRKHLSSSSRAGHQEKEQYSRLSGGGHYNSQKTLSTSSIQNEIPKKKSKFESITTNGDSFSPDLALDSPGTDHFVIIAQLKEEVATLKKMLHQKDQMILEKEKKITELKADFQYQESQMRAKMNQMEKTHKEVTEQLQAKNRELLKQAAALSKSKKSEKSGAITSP
UniProt Q6P3S6: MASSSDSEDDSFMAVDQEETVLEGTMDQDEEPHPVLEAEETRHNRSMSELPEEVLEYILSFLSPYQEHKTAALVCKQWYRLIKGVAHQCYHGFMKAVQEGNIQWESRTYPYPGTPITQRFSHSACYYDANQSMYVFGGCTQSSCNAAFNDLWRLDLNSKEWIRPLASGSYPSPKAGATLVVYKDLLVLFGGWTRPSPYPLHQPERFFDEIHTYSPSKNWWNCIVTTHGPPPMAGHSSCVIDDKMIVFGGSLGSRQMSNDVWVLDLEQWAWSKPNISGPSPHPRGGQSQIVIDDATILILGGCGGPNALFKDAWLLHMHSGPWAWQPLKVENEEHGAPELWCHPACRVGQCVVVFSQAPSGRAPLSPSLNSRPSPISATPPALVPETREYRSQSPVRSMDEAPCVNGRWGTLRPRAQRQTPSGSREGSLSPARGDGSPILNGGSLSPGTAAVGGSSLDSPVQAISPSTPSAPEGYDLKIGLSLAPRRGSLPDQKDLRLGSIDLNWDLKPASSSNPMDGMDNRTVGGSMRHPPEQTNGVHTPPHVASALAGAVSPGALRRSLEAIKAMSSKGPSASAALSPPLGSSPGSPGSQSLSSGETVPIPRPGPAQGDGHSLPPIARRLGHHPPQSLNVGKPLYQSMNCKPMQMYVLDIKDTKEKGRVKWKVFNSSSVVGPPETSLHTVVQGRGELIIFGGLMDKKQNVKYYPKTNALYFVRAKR
UniProt Q9Y3D6: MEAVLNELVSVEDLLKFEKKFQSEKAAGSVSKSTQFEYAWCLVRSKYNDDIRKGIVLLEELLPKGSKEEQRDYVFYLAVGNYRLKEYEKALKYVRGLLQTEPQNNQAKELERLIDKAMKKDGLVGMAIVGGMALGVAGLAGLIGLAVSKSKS
UniProt P37268: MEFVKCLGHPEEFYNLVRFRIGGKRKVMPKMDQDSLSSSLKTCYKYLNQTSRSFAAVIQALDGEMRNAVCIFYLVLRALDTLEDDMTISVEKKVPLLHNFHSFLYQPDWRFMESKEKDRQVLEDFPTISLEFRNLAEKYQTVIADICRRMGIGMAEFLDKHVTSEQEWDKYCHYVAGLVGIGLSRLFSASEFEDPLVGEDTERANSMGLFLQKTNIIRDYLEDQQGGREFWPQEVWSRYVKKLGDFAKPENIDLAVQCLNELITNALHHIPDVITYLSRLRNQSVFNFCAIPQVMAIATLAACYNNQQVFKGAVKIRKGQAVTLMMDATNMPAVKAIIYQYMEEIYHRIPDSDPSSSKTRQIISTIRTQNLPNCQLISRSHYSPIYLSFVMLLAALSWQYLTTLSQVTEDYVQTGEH
UniProt Q14153: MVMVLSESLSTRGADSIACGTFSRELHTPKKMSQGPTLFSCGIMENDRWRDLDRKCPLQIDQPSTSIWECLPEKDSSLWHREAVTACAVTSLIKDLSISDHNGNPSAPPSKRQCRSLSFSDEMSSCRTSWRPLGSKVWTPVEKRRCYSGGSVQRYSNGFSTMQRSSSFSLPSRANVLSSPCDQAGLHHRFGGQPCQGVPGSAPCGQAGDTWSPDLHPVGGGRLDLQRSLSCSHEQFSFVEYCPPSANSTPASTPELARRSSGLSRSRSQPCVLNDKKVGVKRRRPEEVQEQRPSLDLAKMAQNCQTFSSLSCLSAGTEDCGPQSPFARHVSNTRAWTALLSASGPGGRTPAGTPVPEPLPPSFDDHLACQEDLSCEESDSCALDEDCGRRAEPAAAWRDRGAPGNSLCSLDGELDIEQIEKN
UniProt Q96SL8: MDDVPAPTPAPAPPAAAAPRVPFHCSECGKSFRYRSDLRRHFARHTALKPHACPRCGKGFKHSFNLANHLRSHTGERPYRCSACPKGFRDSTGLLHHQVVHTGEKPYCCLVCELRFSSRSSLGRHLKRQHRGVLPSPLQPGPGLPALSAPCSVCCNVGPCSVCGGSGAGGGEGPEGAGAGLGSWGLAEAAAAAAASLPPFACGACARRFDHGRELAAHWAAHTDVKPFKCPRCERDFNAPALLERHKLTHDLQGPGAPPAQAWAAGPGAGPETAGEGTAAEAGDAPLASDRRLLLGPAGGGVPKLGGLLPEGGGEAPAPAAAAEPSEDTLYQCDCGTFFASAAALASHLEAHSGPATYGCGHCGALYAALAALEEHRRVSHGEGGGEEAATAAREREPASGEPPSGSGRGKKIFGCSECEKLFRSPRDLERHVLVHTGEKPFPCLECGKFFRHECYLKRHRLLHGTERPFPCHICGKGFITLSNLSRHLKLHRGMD
UniProt Q96HJ9: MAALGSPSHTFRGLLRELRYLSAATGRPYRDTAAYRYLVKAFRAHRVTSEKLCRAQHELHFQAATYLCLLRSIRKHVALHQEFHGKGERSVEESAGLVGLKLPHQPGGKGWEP
UniProt Q9Y613: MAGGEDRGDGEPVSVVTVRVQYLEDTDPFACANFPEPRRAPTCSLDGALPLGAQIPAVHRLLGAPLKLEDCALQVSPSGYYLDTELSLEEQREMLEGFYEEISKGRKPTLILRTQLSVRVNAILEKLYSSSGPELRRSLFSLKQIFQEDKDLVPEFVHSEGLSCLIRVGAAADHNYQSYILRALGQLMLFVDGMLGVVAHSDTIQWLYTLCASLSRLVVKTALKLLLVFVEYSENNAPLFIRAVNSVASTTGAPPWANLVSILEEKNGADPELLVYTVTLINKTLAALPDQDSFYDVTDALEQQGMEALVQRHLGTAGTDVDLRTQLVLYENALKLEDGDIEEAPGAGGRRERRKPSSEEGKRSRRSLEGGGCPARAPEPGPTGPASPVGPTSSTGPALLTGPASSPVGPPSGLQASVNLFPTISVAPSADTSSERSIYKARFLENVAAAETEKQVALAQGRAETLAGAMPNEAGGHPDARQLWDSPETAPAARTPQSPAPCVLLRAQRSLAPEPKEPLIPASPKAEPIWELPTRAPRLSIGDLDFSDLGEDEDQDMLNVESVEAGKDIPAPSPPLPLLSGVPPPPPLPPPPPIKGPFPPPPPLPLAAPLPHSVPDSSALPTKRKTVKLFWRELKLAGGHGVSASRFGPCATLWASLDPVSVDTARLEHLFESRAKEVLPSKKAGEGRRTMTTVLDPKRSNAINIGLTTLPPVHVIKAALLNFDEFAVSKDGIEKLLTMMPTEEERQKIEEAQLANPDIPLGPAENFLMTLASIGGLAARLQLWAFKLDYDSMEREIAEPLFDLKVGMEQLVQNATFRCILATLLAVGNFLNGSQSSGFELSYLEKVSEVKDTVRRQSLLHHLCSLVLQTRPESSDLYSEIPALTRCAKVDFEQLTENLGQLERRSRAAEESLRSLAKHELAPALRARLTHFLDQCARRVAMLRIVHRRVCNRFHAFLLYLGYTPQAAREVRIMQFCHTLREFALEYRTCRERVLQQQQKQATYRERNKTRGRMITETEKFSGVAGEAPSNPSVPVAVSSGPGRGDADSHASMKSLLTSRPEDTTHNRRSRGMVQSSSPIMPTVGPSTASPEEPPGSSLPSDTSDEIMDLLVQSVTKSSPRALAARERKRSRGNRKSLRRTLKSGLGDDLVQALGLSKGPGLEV
UniProt P14324: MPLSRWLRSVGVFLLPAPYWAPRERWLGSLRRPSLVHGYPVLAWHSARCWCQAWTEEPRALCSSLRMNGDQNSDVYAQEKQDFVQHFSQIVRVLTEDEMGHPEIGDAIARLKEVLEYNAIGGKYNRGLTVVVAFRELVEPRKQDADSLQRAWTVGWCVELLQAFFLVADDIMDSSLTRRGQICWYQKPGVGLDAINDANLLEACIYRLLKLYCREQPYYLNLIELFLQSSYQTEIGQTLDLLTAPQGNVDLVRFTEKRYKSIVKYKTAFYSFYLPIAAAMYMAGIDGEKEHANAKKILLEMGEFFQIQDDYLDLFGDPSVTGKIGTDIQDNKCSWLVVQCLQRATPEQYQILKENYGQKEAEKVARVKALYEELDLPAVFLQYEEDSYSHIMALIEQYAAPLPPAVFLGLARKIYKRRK
UniProt Q9NVI1: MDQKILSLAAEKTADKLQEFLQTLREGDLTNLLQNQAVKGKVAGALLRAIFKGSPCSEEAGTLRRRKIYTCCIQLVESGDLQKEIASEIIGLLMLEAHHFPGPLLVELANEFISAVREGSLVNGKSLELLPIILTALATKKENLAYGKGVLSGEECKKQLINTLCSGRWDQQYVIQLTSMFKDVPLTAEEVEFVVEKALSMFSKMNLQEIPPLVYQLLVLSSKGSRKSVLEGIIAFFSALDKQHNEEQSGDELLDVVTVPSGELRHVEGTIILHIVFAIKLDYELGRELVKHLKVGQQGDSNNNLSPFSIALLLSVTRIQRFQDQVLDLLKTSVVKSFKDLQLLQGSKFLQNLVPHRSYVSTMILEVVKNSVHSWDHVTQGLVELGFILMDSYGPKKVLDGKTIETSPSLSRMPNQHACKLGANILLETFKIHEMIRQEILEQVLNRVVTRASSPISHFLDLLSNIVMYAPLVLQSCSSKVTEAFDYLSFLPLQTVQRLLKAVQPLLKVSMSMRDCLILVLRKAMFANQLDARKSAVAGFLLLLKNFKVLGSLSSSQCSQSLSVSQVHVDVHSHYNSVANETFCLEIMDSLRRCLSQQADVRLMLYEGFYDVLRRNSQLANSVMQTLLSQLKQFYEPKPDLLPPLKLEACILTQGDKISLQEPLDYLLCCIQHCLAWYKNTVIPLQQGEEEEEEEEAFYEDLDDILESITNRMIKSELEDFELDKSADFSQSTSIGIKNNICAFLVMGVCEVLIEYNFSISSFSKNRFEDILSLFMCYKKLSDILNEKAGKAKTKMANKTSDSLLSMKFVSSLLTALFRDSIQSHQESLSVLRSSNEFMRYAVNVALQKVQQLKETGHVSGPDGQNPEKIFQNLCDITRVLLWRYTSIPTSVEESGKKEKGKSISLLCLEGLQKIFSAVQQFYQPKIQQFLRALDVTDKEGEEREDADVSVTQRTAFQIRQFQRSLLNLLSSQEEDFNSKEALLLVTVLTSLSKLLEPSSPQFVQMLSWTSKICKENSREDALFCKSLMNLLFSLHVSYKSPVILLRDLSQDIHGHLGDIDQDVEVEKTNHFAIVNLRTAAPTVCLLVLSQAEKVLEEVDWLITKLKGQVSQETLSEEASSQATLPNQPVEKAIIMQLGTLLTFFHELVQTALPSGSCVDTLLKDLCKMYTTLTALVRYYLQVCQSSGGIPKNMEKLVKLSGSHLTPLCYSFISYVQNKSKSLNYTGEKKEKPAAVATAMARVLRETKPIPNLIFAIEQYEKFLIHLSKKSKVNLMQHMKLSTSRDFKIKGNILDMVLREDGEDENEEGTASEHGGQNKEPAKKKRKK
UniProt P39748, whole entry, looked up: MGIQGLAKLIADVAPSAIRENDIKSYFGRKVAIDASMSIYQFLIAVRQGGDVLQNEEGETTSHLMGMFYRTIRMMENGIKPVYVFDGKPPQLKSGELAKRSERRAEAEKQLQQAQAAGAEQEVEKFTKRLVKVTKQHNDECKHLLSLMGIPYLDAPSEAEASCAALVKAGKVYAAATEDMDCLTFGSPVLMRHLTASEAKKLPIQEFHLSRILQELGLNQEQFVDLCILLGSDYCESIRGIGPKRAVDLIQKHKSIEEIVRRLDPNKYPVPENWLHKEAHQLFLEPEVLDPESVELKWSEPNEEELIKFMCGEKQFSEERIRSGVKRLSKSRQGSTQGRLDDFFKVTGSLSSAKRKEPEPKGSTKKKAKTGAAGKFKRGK

log2 fold change, inactive:
FGB (UniProt P02675) 0.089
FAM89A (UniProt Q96GI7) -0.035
FBXO38 (UniProt Q6PIJ6) -0.044
FBXL8 (UniProt Q96CD0) -0.136
FAM76A isoform 3 (UniProt Q8TAV0) 0.151
FAM210B (UniProt Q96KR6) -0.011
FITM2 (UniProt Q8N6M3) -0.022

The targets below were run with CN1C2=C(C3=C1C(=O)N(N=C3)CC4=CC(=CC=C4)N)SC(=C2)S(=O)C in the same assay as above.
Outline: as §1

log2 fold change, inactive:
FKBP4 (UniProt Q02790) -0.04
FBXO42 (UniProt Q6P3S6) 0.032
FASTKD1 (UniProt Q53R41) 0.072
FLT1 (UniProt P17948) -0.071
FCHO1 (UniProt O14526) 0.025
FIS1 (UniProt Q9Y3D6) -0.189
FDFT1 (UniProt P37268) -0.059
FBXO38 (UniProt Q6PIJ6) 0.043
FECH isoform 2 (UniProt P22830) -0.123
FAM53B (UniProt Q14153) -0.016
FANCD2 isoform 1 (UniProt Q9BXW9) -0.009
FAM3A (UniProt P98173) -0.023
FIZ1 (UniProt Q96SL8) 0.138
FIBP (UniProt O43427) -0.072
FCHSD1 (UniProt Q86WN1) -0.081
FCF1 (UniProt Q9Y324) 0.107
FBXO9 (UniProt Q9UK97) 0.045
FMC1 (UniProt Q96HJ9) -0.01
FAM241A (UniProt Q8N8J7) 0.059
FHOD1 (UniProt Q9Y613) 0.372
FNTA (UniProt P49354) -0.03
FAM222B (UniProt Q8WU58) -0.005
FDPS (UniProt P14324) -0.034
FBXO6 (UniProt Q9NRD1) 0.005
FAT2 (UniProt Q9NYQ8) -0.023
FANCI (UniProt Q9NVI1) -0.013
FEN1 (UniProt P39748) -0.057
FAM210B (UniProt Q96KR6) -0.06

Reference: the supplement of paper PMC10849652
